The values that follow are results of earlier work, collected in patent US6268381A, “Taxane derivatives” (Kabushiki Kaisha Yakult Honsha, priority 1997, dated 2001).

The structures appear in SMILES notation.

The conditions of this data set: background; cited from earlier work.

As for `CC(=O)O[C@H]1C(=O)[C@@]2(C)[C@H]([C@H](OC(=O)c3ccccc3)[C@]3(O)C[C@H](OC(=O)[C@H](O)[C@@H](NC(=O)c4ccccc4)c4ccccc4)C(C)=C1C3(C)C)[C@]1(OC(C)=O)CO[C@@H]1C[C@@H]2O` [Taxol], the “Solubility in water (in words)” value is “sparingly soluble in water”.
